Data as given in paper PMC9229493, “Talaromarins A–F: Six New Isocoumarins from Mangrove-Derived Fungus Talaromyces flavus TGGP35” (Marine Drugs, 2022).
In brackets after ≈: the same amount, converted by molar mass.

Columns and labels:
Experiment in all cases: Antibacterial activity, microplate assay
Format in all cases: cell-based
[1] = test system: Staphylococcus aureus (ATCC 25923); conditions: ATCC25923, S. aureus
[2] = test system: Escherichia coli (ATCC 25922); conditions: ATCC25922, E. coli
[3] = test system: Pseudomonas aeruginosa (ATCC 17749); conditions: ATCC17749, P. aeruginosa

For `O=C(O)c1cn(C2CC2)c2cc(N3CCNCC3)c(F)cc2c1=O` [ciprofloxacin], the MIC [1] was 0.097 µg/mL (≈ 0.293 µM), the MIC [2] was 0.78 µg/mL (≈ 2.35 µM) and the MIC [3] was 0.78 µg/mL (≈ 2.35 µM).
